We go through 48 targets from the supplement of paper PMC12595434, “Development of retinoid nuclear receptor pathway antagonists through targeting aldehyde dehydrogenase 1A3” (iScience, 2025).

Sequences of proteins named here, by UniProt entry; tags and fusion partners are left off. A change or cut given only in a name is not applied to a line headed by its entry.
UniProt Q70UQ0: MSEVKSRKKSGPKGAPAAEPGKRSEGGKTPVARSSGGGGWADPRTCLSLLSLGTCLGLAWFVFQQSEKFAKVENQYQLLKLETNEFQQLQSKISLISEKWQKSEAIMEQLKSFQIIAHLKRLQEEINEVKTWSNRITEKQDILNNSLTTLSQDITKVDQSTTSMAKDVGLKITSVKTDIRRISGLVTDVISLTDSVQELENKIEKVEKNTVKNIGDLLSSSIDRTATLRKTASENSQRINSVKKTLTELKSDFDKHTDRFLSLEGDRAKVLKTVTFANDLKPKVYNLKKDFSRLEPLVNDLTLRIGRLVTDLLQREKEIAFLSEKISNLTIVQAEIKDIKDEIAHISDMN
UniProt Q6XQN6: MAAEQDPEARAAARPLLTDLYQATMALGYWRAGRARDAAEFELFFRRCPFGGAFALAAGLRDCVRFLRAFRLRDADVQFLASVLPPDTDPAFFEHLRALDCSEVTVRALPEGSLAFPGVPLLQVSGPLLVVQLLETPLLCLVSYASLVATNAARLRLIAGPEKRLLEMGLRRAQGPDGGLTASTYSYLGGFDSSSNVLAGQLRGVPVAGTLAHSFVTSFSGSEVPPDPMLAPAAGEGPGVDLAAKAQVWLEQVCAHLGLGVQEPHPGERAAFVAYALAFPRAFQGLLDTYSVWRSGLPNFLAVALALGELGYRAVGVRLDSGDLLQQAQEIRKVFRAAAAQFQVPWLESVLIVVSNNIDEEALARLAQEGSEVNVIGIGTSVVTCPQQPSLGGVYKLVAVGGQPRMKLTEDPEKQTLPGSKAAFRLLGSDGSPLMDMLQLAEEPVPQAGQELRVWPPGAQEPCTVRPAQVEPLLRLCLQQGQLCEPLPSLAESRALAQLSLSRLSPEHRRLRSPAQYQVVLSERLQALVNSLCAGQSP
UniProt Q86SZ2: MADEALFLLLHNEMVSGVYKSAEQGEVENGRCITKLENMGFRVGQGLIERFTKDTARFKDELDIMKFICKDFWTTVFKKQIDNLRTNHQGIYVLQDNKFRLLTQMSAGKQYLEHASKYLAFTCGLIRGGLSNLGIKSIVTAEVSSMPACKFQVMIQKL
UniProt Q86TM6, whole entry: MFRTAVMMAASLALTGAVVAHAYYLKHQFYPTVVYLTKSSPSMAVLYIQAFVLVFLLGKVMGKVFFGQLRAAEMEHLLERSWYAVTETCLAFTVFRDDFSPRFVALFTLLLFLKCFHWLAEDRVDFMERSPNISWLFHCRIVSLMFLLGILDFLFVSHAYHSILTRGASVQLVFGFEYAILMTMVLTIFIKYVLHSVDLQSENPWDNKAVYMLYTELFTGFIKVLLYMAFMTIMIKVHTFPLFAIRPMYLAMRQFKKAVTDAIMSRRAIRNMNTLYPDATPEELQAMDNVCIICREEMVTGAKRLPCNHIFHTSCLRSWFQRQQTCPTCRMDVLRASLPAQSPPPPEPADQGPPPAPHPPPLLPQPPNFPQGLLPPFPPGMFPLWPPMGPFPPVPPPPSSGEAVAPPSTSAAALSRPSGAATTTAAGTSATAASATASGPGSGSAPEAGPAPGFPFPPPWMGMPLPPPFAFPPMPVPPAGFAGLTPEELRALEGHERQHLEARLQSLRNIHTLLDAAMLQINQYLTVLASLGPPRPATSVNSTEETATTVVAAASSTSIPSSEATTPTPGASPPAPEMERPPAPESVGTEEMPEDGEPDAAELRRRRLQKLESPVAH
UniProt Q7L590: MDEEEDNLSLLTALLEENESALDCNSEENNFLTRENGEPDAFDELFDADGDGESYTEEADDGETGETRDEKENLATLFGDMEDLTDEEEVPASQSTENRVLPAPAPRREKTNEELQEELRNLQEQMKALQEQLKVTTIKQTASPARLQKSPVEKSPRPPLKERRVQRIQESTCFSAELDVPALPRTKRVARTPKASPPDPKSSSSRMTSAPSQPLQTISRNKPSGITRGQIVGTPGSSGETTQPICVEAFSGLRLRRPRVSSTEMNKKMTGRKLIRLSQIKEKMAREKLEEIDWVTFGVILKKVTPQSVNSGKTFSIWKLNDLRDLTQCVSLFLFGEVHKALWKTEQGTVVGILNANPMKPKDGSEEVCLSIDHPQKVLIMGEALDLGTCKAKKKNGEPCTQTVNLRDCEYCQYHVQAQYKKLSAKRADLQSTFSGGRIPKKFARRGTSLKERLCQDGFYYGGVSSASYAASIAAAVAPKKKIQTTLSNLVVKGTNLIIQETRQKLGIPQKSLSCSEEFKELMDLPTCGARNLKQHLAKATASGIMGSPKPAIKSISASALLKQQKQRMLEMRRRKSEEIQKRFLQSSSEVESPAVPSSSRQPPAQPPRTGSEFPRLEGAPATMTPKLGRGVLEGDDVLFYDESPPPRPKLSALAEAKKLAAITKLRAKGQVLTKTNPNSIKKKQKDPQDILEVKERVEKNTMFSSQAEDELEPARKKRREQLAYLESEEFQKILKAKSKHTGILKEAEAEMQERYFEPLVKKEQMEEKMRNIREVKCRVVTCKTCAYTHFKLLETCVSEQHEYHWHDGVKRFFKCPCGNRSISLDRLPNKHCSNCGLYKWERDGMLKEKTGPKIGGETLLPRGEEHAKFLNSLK
UniProt Q6UXV4: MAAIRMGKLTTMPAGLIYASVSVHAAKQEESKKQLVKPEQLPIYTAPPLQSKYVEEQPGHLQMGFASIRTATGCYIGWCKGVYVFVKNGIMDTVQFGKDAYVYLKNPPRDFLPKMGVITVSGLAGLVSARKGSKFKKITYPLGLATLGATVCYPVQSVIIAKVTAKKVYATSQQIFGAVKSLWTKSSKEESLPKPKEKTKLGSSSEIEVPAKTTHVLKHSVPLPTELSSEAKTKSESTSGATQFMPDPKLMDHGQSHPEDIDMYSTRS
UniProt Q6PHR2: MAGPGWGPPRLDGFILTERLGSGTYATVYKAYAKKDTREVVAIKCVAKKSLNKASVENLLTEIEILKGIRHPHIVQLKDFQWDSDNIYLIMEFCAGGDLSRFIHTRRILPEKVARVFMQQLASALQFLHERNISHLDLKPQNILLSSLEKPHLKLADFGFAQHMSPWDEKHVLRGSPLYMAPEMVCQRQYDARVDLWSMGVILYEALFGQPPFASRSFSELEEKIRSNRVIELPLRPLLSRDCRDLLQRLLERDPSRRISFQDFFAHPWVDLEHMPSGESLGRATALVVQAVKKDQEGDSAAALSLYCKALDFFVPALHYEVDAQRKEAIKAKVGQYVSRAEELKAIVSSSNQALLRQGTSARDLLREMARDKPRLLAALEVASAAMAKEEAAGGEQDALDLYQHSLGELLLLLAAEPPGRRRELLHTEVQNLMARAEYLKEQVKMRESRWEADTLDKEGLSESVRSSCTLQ
UniProt Q86VM9: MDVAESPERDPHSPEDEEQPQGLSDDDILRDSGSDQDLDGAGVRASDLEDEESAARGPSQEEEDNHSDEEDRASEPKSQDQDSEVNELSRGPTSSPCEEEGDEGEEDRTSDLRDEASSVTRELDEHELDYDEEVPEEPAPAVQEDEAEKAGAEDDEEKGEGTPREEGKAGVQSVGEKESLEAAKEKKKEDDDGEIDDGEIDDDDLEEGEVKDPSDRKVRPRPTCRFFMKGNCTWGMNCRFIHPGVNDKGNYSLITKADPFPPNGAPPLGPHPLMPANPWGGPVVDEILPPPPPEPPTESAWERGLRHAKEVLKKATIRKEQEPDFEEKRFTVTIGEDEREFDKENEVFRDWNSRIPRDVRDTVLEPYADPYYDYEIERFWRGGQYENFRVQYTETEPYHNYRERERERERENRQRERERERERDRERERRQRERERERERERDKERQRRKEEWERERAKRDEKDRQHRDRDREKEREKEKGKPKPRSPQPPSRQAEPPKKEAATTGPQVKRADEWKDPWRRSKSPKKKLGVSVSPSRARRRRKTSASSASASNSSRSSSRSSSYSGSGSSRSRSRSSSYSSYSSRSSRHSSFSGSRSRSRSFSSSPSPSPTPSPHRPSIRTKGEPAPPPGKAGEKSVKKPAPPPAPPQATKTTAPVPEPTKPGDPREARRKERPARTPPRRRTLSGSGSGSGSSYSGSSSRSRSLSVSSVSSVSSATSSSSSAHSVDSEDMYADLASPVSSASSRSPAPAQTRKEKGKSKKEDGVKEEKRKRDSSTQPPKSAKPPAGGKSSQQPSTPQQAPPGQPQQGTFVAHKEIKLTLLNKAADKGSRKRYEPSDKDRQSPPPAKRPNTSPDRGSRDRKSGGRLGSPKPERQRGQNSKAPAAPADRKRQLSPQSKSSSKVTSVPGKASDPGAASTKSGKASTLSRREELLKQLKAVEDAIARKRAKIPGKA
UniProt Q7Z4H3: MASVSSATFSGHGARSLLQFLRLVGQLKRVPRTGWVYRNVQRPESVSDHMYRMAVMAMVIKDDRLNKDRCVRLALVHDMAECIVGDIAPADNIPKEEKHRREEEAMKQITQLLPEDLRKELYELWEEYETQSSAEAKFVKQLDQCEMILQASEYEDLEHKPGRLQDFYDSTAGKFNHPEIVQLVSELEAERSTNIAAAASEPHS
UniProt Q86UP2: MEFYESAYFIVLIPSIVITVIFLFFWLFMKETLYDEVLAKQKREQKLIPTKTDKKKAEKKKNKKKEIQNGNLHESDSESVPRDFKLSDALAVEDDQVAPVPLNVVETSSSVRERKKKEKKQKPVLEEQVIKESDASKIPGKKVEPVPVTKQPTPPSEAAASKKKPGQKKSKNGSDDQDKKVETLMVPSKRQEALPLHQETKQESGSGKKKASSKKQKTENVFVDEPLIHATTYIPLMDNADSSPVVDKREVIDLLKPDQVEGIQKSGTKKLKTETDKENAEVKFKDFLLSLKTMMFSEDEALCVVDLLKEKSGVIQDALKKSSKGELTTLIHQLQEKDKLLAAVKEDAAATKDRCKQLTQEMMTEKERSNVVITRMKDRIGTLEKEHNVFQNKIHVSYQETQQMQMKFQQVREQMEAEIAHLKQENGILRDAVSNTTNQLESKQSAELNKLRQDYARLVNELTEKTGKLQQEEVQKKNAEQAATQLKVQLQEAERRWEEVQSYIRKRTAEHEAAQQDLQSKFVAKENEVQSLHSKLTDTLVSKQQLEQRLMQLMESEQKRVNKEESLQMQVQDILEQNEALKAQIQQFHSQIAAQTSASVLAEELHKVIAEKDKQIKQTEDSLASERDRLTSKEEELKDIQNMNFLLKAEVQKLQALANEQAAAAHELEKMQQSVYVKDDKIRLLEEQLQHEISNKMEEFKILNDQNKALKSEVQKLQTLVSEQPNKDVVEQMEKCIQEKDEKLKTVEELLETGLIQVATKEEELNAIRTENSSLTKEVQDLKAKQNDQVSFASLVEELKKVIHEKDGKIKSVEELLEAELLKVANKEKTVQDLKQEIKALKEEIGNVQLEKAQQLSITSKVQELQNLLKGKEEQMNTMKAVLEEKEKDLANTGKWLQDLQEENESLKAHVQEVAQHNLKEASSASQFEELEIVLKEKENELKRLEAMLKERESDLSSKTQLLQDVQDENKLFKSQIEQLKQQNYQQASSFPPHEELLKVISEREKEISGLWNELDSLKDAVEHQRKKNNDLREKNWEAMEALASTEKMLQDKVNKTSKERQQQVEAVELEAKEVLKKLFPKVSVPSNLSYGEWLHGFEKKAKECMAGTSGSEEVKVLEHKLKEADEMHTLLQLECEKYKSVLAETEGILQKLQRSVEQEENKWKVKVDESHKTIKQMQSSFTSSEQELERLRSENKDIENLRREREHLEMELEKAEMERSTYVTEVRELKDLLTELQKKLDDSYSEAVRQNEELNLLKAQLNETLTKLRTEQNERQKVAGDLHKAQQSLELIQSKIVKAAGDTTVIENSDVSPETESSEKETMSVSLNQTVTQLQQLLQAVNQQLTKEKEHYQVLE
UniProt Q7Z5Q1: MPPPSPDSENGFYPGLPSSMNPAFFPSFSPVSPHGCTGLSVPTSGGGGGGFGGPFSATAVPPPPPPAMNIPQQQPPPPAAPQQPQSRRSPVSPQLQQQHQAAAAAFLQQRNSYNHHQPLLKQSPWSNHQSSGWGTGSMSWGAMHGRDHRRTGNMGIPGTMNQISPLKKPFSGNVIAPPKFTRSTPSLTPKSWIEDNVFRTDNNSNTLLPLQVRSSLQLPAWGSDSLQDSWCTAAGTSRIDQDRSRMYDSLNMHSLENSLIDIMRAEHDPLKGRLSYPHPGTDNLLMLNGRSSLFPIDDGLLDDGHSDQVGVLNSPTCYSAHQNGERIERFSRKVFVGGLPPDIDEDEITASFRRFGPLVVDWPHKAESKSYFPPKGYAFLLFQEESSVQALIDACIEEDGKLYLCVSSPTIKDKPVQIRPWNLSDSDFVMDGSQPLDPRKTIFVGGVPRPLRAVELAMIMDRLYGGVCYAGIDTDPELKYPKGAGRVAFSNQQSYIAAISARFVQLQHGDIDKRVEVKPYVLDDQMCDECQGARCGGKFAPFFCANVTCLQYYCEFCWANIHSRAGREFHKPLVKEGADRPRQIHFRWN

Compound in this test: CCc1cnccc1C(=O)Nc1cc2c(cc1F)NC(=O)CC2
The experiment in a line: melting temperature shift (DMSO Tm minus MBE1-treated Tm) in cellular thermal proteome profiling; higher = less thermal stabilization by MBE1 (negative = stabilized by MBE1). The note with it: A375.

This is one part of the list. The data scatter; read single values as rough.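 Many melting curves are irregular; where none melted, Tm was taken as 64 °C.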

In the case of IKBIP (UniProt Q70UQ0), the melting temperature shift was -1.7 °C (MBE1 concentration: 100 nM) and -0.513 °C (MBE1 concentration: 1 uM).

For the target SUPT6H (UniProt Q7KZ85), the melting temperature shift reads like this: (MBE1 concentration: 100 nM) -0.682 °C; (MBE1 concentration: 1 uM) -0.574 °C.

Consider NAPRT (UniProt Q6XQN6), for which the melting temperature shift (MBE1 concentration: 100 nM) was -1.47 °C and the melting temperature shift (MBE1 concentration: 1 uM) was -0.419 °C.

With TRAPPC6B (UniProt Q86SZ2), the melting temperature shift runs as follows: (MBE1 concentration: 100 nM) -0.208 °C; (MBE1 concentration: 1 uM) -0.0604 °C.

As for SYVN1 (UniProt Q86TM6), the melting temperature shift is 0.696 °C (MBE1 concentration: 100 nM) and -4.58 °C (MBE1 concentration: 1 uM).

As for NDUFAF7 (UniProt Q7L592), the melting temperature shift is -1.03 °C (MBE1 concentration: 100 nM) and -0.221 °C (MBE1 concentration: 1 uM).

For MON1B (UniProt Q7L1V2), the melting temperature shift by setting is: (MBE1 concentration: 100 nM) -0.97 °C; (MBE1 concentration: 1 uM) -0.206 °C.

With CTR9 (UniProt Q6PD62), the melting temperature shift is -0.179 °C (MBE1 concentration: 100 nM) and -0.032 °C (MBE1 concentration: 1 uM).

With UniProt Q6ZU35, the melting temperature shift by setting is: (MBE1 concentration: 100 nM) -1.14 °C; (MBE1 concentration: 1 uM) 2.57 °C.

For the target MTSS1L (UniProt Q765P7), the melting temperature shift runs as follows: (MBE1 concentration: 100 nM) 0.543 °C; (MBE1 concentration: 1 uM) 1.25 °C.

As to HDGFRP2 (UniProt Q7Z4V5), the melting temperature shift runs as follows: (MBE1 concentration: 100 nM) -2.01 °C; (MBE1 concentration: 1 uM) 0.879 °C.

In the case of UniProt Q7Z3D6, the melting temperature shift (MBE1 concentration: 100 nM) is -0.161 °C and the melting temperature shift (MBE1 concentration: 1 uM) turned out to be 0.262 °C.

As to UniProt Q86UP3, the melting temperature shift (MBE1 concentration: 100 nM) is -4.5 °C and the melting temperature shift (MBE1 concentration: 1 uM) was -1.58 °C.

Turning to PARS2 (UniProt Q7L3T8), the melting temperature shift by setting is: (MBE1 concentration: 100 nM) -1.48 °C; (MBE1 concentration: 1 uM) 0.342 °C.

For the target MRPL10 (UniProt Q7Z7H8), the melting temperature shift runs as follows: (MBE1 concentration: 100 nM) 1.39 °C; (MBE1 concentration: 1 uM) 1.47 °C.

MYH14 (UniProt Q7Z406): the melting temperature shift (MBE1 concentration: 100 nM) amounted to 0.812 °C and the melting temperature shift (MBE1 concentration: 1 uM) came out at 0.55 °C.

For the target UniProt Q7L590, the melting temperature shift by setting is: (MBE1 concentration: 100 nM) -0.562 °C; (MBE1 concentration: 1 uM) 8.78 °C.

Take UniProt Q7Z6K5: the melting temperature shift reads like this: (MBE1 concentration: 100 nM) -0.195 °C; (MBE1 concentration: 1 uM) -0.104 °C.

For APOOL (UniProt Q6UXV4), the melting temperature shift by setting is: (MBE1 concentration: 100 nM) -2.67 °C; (MBE1 concentration: 1 uM) -2.41 °C.

Consider NAA40 (UniProt Q86UY6), for which the melting temperature shift runs as follows: (MBE1 concentration: 100 nM) -1.14 °C; (MBE1 concentration: 1 uM) -0.32 °C.

For the target UBE3B (UniProt Q7Z3V4), the melting temperature shift was found to be 0.151 °C (MBE1 concentration: 100 nM) and 0.00891 °C (MBE1 concentration: 1 uM).

For the target DPP8 (UniProt Q6V1X1), the melting temperature shift reads like this: (MBE1 concentration: 100 nM) -1.15 °C; (MBE1 concentration: 1 uM) 1.29 °C.

On to TMEM65 (UniProt Q6PI78), for which the melting temperature shift is, setting by setting: (MBE1 concentration: 100 nM) -1.37 °C; (MBE1 concentration: 1 uM) -2.4 °C.

In the case of UniProt Q7Z7M0, the melting temperature shift is -1.23 °C (MBE1 concentration: 100 nM) and 0.768 °C (MBE1 concentration: 1 uM).

For UniProt Q6ZU80, the melting temperature shift (MBE1 concentration: 100 nM) is -1.63 °C and the melting temperature shift (MBE1 concentration: 1 uM) was determined as 0.57 °C.

As for VPS13B (UniProt Q7Z7G8), the melting temperature shift is -0.0733 °C (MBE1 concentration: 100 nM) and 1.22 °C (MBE1 concentration: 1 uM).

For EIF3M (UniProt Q7L2H7), the melting temperature shift reads like this: (MBE1 concentration: 100 nM) 0 °C; (MBE1 concentration: 1 uM) -0.461 °C.

As to SASS6 (UniProt Q6UVJ0), the melting temperature shift is -0.869 °C (MBE1 concentration: 100 nM) and 0.295 °C (MBE1 concentration: 1 uM).

In the case of C16ORF62 (UniProt Q7Z3J2), the melting temperature shift reads like this: (MBE1 concentration: 100 nM) 0.885 °C; (MBE1 concentration: 1 uM) 0.183 °C.

Turning to GALNT7 (UniProt Q86SF2), the melting temperature shift is -0.704 °C (MBE1 concentration: 100 nM) and 0.288 °C (MBE1 concentration: 1 uM).

For SEZ6L2 (UniProt Q6UXD5), the melting temperature shift was -1.87 °C (MBE1 concentration: 100 nM) and 0.154 °C (MBE1 concentration: 1 uM).

On to EFL1 (UniProt Q7Z2Z2), for which the melting temperature shift is, setting by setting: (MBE1 concentration: 100 nM) 0.757 °C; (MBE1 concentration: 1 uM) -0.14 °C.

In the case of DHX30 (UniProt Q7L2E3), the melting temperature shift is, setting by setting: (MBE1 concentration: 100 nM) 0.183 °C; (MBE1 concentration: 1 uM) -0.214 °C.

Regarding CSPG4 (UniProt Q6UVK1), the melting temperature shift was -5.08 °C (MBE1 concentration: 100 nM) and -1.44 °C (MBE1 concentration: 1 uM).

ULK3 (UniProt Q6PHR2): the melting temperature shift is, setting by setting: (MBE1 concentration: 100 nM) -0.819 °C; (MBE1 concentration: 1 uM) -0.72 °C.

Consider DARS2 (UniProt Q6PI48), for which the melting temperature shift is -1.59 °C (MBE1 concentration: 100 nM) and 0.561 °C (MBE1 concentration: 1 uM).

For ZC3H18 (UniProt Q86VM9), the melting temperature shift was -2.55 °C (MBE1 concentration: 100 nM) and 0.227 °C (MBE1 concentration: 1 uM).

As for KIAA0907 (UniProt Q7Z7F0), the melting temperature shift is, setting by setting: (MBE1 concentration: 100 nM) 1.43 °C; (MBE1 concentration: 1 uM) -0.586 °C.

As for PHLDB2 (UniProt Q86SQ0), the melting temperature shift is -0.441 °C (MBE1 concentration: 100 nM) and -0.205 °C (MBE1 concentration: 1 uM).

CYFIP1 (UniProt Q7L576): the melting temperature shift stood at 0.44 °C (MBE1 concentration: 100 nM) and 0.421 °C (MBE1 concentration: 1 uM).

Consider UniProt Q86UT8, for which the melting temperature shift by setting is: (MBE1 concentration: 100 nM) 1.84 °C; (MBE1 concentration: 1 uM) 0.00611 °C.

On to FIP1L1 (UniProt Q6UN15), for which the melting temperature shift by setting is: (MBE1 concentration: 100 nM) -0.616 °C; (MBE1 concentration: 1 uM) -0.974 °C.

UniProt Q75QN2: the melting temperature shift by setting is: (MBE1 concentration: 100 nM) -0.0733 °C; (MBE1 concentration: 1 uM) -0.0244 °C.

As to HDDC2 (UniProt Q7Z4H3), the melting temperature shift is -1.7 °C (MBE1 concentration: 100 nM) and -2.05 °C (MBE1 concentration: 1 uM).

With KTN1 (UniProt Q86UP2), the melting temperature shift reads like this: (MBE1 concentration: 100 nM) 0.678 °C; (MBE1 concentration: 1 uM) 0.226 °C.

In the case of UniProt Q7Z698, the melting temperature shift is, setting by setting: (MBE1 concentration: 100 nM) 0.171 °C; (MBE1 concentration: 1 uM) 0.782 °C.

Take UniProt Q7Z5Q1: the melting temperature shift (MBE1 concentration: 100 nM) was -0.0366 °C and the melting temperature shift (MBE1 concentration: 1 uM) amounted to 0.727 °C.

TTC37 (UniProt Q6PGP7): the melting temperature shift is -1.04 °C (MBE1 concentration: 100 nM) and -0.848 °C (MBE1 concentration: 1 uM).
